Test results published in patent US5066818A, “Photochromic naphthopyran compounds” (PPG Industries, Inc., priority 1990, dated 1991).
At least one compound was matched to its structure with a doubt left.

Test: Photochromic response on optical bench of naphthopyrans imbibed into polymer test samples
Format: physicochemical
Conditions: homopolymer of diethylene glycol bis(allyl carbonate); for Δ OD at SATURATION: 150 watt Xenon lamp, about one sun, twenty minutes exposure; for Bleach Rate T1/2: values in sec.
Description: Naphthopyran compounds prepared in the above-described Examples were imbibed by thermal transfer into test samples of a homopolymer of diethylene glycol bis(allyl carbonate) by the following procedure. Each naphthopyran was dissolved into toluene solvent to form a 4% solution of the compound. A piece of No. 4 Whatman filter paper was saturated with the naphthopyran solution and allowed to air dry. The dried filter paper was placed on one side of the polymer test sample, which measured 1/8 inch (0.3 centimeter)×2 inch (5.1 centimeters)×2 inch (5.1 centimeters). A piece of untreated filter paper was placed on the other side of the polymer test sample and the resulting sandwich placed between two plates of flat aluminum metal plates. The entire assembly was then placed in a 155° C. oven for a time sufficient to thermally transfer the naphthopyran into the polymer test sample.
The imbibed test samples were removed from the oven, washed with acetone, and tested for photochromic response rates on an optical bench. The samples were illuminated by a 150 watt Xenon lamp fitted with a copper sulfate bath and neutral density filter at an intensity of about one sun. The optical density at saturation was determined at twenty minutes exposure.

Compound: COc1ccc(C2(c3ccccc3F)C=Cc3c(ccc4ccccc34)O2)cc1 (stereo not shown) [Example 1, 3(2-fluorophenyl)-3(4-methoxyphenyl)-3H-naphtho [2,1-b]pyran]
- Δ OD at SATURATION: 1.00
- Bleach Rate T1/2: 2.83 min

Compound: COc1ccc(C2(c3ccccc3F)C=Cc3c(ccc4ccccc34)O2)cc1OC (stereo not shown) [Example 2, 3(2-fluorophenyl)-3(3,4-dimethoxyphenyl)-3H-naphtho[2,1-b]-pyran]
- Δ OD at SATURATION: 1.05
- Bleach Rate T1/2: 3.38 min
